# In the supplement of paper PMC12067093, “Discovery and optimisation of a covalent ligand for TRIM25 and its application to targeted protein ubiquitination” (Chemical Science, 2025):
# The chains behind the UniProt entries cited, without tags or fusion partners. Where a name states a change or a piece, a line headed by the entry shows the natural chain unless it says otherwise.
# UniProt Q9NVE7: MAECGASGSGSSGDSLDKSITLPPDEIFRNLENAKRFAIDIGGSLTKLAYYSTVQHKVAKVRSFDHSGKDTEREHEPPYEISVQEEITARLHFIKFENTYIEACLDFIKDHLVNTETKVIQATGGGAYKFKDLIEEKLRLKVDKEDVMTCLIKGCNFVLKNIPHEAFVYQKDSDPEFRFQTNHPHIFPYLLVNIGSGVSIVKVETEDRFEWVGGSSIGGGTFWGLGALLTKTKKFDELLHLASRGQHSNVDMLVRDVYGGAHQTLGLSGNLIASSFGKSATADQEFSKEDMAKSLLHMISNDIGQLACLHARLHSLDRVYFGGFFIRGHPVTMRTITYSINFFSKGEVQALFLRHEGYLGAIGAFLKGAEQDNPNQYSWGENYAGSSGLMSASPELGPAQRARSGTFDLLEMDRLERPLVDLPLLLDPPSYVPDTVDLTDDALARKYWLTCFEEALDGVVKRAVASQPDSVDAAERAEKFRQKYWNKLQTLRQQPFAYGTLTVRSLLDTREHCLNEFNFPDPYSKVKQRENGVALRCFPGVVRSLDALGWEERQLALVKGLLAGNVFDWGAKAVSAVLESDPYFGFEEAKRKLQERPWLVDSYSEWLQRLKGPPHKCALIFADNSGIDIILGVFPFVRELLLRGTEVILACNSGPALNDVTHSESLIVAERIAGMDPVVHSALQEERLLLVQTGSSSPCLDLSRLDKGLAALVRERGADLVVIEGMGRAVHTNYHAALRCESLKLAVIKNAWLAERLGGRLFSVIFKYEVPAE
# UniProt Q13438: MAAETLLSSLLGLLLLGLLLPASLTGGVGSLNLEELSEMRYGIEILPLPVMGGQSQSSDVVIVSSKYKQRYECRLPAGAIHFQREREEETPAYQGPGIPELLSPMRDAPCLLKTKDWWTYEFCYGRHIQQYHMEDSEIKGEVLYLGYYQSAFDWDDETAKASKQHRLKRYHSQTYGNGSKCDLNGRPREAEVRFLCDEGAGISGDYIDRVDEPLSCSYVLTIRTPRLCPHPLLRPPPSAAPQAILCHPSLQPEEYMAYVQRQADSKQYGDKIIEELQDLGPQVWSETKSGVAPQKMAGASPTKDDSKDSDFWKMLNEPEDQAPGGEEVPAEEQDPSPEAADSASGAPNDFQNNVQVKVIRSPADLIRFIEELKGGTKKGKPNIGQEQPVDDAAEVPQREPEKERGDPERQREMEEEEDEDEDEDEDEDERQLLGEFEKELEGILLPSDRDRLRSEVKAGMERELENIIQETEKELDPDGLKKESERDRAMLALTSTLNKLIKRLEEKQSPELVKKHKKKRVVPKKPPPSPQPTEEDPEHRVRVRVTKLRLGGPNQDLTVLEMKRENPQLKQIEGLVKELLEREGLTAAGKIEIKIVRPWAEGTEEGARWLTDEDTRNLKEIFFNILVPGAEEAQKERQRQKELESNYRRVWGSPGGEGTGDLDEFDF
# UniProt O14841: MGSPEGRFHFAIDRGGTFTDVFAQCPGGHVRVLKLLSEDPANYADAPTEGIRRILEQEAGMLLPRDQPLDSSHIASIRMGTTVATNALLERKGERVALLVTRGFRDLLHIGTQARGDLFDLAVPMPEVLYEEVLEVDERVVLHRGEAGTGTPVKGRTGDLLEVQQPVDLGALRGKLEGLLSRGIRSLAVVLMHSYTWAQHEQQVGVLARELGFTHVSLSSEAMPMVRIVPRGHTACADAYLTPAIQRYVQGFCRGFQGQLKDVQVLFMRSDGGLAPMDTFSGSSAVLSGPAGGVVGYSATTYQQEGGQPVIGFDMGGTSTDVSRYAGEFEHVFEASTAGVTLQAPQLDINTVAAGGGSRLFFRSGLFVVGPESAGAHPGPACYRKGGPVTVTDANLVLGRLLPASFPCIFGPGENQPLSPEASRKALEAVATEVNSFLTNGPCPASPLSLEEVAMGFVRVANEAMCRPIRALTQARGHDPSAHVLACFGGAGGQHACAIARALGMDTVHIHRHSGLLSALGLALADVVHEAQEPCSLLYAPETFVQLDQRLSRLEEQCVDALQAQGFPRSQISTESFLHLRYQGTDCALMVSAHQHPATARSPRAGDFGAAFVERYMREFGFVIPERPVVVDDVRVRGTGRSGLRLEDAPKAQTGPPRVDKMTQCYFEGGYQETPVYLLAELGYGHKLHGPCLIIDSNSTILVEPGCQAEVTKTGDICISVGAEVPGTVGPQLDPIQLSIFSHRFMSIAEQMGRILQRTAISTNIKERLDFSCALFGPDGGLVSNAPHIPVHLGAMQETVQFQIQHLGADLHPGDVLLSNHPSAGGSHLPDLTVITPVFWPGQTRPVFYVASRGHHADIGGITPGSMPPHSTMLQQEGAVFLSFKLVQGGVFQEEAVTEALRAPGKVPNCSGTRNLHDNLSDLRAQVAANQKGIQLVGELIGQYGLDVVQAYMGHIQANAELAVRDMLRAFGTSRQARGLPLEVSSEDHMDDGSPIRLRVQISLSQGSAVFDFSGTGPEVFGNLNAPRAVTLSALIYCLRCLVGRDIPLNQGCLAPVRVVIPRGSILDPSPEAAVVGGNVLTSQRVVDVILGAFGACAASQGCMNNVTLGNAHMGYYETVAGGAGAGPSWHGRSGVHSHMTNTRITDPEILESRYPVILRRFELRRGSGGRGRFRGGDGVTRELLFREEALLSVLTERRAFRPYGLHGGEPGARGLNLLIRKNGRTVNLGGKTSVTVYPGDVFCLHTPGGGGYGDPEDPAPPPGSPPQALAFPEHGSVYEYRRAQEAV
# UniProt P22234: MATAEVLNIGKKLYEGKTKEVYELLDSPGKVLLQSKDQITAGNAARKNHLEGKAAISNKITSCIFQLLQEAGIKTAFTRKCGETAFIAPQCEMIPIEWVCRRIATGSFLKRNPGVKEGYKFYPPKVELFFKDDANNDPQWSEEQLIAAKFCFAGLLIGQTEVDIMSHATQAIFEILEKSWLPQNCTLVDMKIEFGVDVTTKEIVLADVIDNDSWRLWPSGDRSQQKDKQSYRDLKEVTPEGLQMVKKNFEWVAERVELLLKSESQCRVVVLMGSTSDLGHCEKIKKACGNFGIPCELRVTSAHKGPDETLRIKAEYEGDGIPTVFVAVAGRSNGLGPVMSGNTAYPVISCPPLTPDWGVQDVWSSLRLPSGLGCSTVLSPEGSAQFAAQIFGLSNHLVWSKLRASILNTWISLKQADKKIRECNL
# UniProt Q92882: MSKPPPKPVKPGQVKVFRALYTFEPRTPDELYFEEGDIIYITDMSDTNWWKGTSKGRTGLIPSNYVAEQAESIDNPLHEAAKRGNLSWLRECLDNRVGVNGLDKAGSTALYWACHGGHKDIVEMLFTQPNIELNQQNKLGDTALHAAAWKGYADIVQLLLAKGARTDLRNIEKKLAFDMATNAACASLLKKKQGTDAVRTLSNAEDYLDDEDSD
# UniProt Q9H0J9: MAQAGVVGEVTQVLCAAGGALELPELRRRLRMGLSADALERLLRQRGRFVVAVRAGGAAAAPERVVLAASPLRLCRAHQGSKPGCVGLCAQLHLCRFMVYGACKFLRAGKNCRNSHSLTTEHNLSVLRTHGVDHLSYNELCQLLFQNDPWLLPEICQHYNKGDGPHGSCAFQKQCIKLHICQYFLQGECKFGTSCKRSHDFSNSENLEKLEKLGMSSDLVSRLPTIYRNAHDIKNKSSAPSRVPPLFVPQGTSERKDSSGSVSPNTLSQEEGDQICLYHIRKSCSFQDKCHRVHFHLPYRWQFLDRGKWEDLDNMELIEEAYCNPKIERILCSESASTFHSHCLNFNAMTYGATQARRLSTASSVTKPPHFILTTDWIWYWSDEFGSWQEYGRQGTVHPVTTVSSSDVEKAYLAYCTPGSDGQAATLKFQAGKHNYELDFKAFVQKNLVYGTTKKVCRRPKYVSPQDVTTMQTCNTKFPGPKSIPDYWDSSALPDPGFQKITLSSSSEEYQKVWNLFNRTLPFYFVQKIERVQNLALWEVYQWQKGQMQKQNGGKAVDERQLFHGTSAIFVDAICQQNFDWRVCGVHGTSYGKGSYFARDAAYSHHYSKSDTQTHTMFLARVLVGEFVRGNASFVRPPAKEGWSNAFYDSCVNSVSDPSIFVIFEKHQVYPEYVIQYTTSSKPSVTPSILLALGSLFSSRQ
# UniProt Q9UNF0: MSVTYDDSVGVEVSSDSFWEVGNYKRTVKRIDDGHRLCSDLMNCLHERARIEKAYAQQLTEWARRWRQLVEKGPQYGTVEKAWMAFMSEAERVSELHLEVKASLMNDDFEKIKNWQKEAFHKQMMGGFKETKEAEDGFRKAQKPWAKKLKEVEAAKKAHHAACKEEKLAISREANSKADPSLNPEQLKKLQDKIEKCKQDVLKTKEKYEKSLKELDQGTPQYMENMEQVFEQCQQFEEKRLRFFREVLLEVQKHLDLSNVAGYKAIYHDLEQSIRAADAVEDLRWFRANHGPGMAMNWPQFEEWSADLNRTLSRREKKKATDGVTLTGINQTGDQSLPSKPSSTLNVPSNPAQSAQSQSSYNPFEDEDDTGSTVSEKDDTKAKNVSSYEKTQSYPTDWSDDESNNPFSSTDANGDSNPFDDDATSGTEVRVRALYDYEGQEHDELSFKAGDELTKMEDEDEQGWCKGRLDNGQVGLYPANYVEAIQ
# UniProt Q32P28: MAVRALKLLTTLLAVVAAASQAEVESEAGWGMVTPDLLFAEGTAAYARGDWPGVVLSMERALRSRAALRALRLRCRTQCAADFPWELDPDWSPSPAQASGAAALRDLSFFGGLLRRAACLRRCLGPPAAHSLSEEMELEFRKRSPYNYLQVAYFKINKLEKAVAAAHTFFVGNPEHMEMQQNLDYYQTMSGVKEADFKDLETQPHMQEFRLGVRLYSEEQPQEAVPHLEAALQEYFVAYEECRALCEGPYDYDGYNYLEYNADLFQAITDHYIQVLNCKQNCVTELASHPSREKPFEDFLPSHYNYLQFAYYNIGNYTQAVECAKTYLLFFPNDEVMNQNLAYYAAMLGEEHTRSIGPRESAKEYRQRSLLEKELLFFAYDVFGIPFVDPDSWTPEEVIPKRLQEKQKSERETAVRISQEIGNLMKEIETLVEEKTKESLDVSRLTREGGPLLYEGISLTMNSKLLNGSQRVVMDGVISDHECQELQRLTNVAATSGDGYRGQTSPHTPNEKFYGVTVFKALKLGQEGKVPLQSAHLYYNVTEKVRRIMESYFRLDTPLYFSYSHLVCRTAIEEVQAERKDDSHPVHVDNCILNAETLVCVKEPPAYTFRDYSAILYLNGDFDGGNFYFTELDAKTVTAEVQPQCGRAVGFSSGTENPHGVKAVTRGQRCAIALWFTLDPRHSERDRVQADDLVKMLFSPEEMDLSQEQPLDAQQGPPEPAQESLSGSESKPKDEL
# UniProt P13674: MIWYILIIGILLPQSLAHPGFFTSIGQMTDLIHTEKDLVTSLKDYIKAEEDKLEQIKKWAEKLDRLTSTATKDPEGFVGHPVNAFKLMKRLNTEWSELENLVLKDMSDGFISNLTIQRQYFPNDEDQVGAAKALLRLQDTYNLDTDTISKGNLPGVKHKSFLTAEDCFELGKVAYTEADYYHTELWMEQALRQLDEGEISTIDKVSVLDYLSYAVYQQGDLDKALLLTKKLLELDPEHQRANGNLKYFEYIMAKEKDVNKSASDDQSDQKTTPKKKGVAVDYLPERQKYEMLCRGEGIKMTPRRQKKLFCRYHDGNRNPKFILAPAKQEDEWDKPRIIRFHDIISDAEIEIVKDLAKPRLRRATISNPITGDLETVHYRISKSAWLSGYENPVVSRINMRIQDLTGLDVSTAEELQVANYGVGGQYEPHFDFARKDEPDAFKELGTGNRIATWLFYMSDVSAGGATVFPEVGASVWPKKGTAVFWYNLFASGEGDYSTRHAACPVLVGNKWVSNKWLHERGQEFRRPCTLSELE
# UniProt O96013: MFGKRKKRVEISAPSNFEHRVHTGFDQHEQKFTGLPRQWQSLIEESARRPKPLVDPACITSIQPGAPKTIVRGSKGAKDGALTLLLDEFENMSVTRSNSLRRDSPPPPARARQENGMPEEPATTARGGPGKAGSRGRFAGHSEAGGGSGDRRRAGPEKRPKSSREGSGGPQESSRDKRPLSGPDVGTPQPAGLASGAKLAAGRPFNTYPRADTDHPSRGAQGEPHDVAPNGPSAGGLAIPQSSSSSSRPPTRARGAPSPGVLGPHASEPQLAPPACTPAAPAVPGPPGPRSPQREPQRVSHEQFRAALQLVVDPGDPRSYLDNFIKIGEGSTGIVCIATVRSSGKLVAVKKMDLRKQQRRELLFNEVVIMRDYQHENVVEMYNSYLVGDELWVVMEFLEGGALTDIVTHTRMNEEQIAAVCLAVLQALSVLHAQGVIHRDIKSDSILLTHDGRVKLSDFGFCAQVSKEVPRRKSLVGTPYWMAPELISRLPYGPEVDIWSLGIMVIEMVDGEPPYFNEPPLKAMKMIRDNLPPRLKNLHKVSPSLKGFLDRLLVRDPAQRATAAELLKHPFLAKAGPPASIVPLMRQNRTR
# Some of the results follow.
# Compound: CC1Cc2ccccc2N1C(=O)C1CCCN(C1)C(=O)CCl (mixture of isomers) [TRIM25 ligand 11 (diastereomer mixture)]
# Experiment: probe-labelled cysteine peptide fold change vs DMSO (competition) (log2 fold change); higher = less target engagement (more negative = stronger competition)
# Settings: THP-1, incubation time: 4 h
# 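Note: competitive chemoproteomic profiling in live THP-1 cells with an iodoacetamide desthiobiotin (IA-DTB) probe, comparing probe-labelled peptide intensities in compound-treated cells against DMSO-treated controls.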
Target,probe-labelled cysteine peptide fold change (10 µM),probe-labelled cysteine peptide fold change (50 µM)
OSGEP_Q9NPF4_160_IFGETIDIAVGNCLDR (UniProt Q9NPF4),0.0104,-0.0314
PANK4_Q9NVE7_308_SLLHMISNDIGQLACLHAR (UniProt Q9NVE7),0.049,0.0263
OTULIN_Q96BN8_47_AAASGQPRPEMQCPAEHEEDMYR (UniProt Q96BN8),-0.0284,-0.303
PALD1_Q9ULE6_382_AITACAELHDLK (UniProt Q9ULE6),-0.0113,0.0917
PAFAH1B2_P68402_188_LANVQLLDTDGGFVHSDGAISCHDMFDFLHLTGGGYAK (UniProt P68402),0.213,-0.342
PARP14_Q460N5_42_RSGGGECEVR (UniProt Q460N5),-0.0352,-0.108
PAPSS1_O43252_165_QIHEGASLPFFEVFVDAPLHVCEQR (UniProt O43252),0.197,0.0965
OS9_Q13438_73_QRYECR (UniProt Q13438),0.00781,0.194
PA2G4_Q9UQ80_149_AAHLCAEAALR (UniProt Q9UQ80),0.0157,0.115
PAPSS2_O95340_497_STIVAIFPSPMLYAGPTEVQWHCR (UniProt O95340),0.22,0.128
PAPSS1_O43252_127_LFADAGLVCITSFISPYTQDR (UniProt O43252),0.147,0.0753
PAPOLA_P51003_293_QPEECNLNLPVWDPR (UniProt P51003),0.0633,0.0321
OGT_O15294_315_GSVAEAEDCYNTALR (UniProt O15294),-0.107,-0.0543
OSGEP_Q9NPF4_265_AMAHCGSQEALIVGGVGCNVR (UniProt Q9NPF4),0.000797,-0.0313
OPLAH_O14841_253_YVQGFCR (UniProt O14841),-0.0062,0.0603
PAFAH1B1_P43034_168_LLASCSADMTIK (UniProt P43034),0.0746,-0.000688
ORC5_O43913_96_LNHLSSSEDGCSTEITCETFNDFVR (UniProt O43913),0.463,0.0635
PARG_Q86W56_397_LPGNISSLNVECR (UniProt Q86W56),0.0868,-0.0236
OXR1_Q8N573-2_50_FEDYLREPAQGDLGCGSPPHRPPAPSSPEGPDTGQK (UniProt Q8N573),0.0482,-0.0597
PAICS_P22234_63_ITSCIFQLLQEAGIK (UniProt P22234),0.182,-0.306
OSTF1_Q92882_185_LAFDMATNAACASLLKK (UniProt Q92882),-0.181,-0.421

Target,probe-labelled cysteine peptide fold change (10 µM),probe-labelled cysteine peptide fold change (50 µM)
OPLAH_O14841_1053_DIPLNQGCLAPVR (UniProt O14841),-0.146,0.136
PAK1IP1_Q9NWT1_237_FFDCDSLVCLCEFK (UniProt Q9NWT1),-0.0714,0.244
OPA1_O60313_853_TALNHCNLCR (UniProt O60313),-0.00121,0.349
PARP12_Q9H0J9_195_FGTSCK (UniProt Q9H0J9),0.0637,0.0773
OSTF1_Q92882_185_KLAFDMATNAACASLLK (UniProt Q92882),-0.203,-0.151
PAIP1_Q9H074_222_LCNYLSHHLTISPQSGNFR (UniProt Q9H074),0.19,-0.0132
OSBPL11_Q9BXB4_34_NSSCGGGISSSSSSR (UniProt Q9BXB4),-0.0951,-0.19
PA2G4_Q9UQ80_87_GIAFPTSISVNNCVCHFSPLK (UniProt Q9UQ80),0.21,-0.184
P2RX4_Q99571_227_TDPFCPIFR (UniProt Q99571),0.0247,0.0728
PARP10_Q53GL7_898_RPVEQVLYHGTTAPAVPDICAHGFNR (UniProt Q53GL7),0.00207,-0.0554
PACSIN2_Q9UNF0_163_AHHAACK (UniProt Q9UNF0),-0.00432,0.0373
OSBPL1A_Q9BXW6_520_DCGGGDALSNGIK (UniProt Q9BXW6),0.00496,0.0314
PA2G4_Q9UQ80_179_VAHSFNCTPIEGMLSHQLK (UniProt Q9UQ80),-0.0816,-0.123
OSBPL8_Q9BZF1_494_CLWIHPR (UniProt Q9BZF1),-0.096,0.00681
OSBPL5_Q9H0X9_14_FSLCPPSSTPQK (UniProt Q9H0X9),-0.0248,-0.0205
P3H1_Q32P28_600_DDSHPVHVDNCILNAETLVCVK (UniProt Q32P28),0.176,0.308
ORC1_Q13415_506_LHVSAVPESLPCR (UniProt Q13415),0.149,0.139
P4HA1_P13674_167_SFLTAEDCFELGK (UniProt P13674),0.088,0.0677
OPA1_O60313_551_NLSLAVSDCFWK (UniProt O60313),-0.0381,-0.00771
PARP16_Q8N5Y8_169_LENFHSIIHNGLHCHLNK (UniProt Q8N5Y8),-0.0777,-0.146
OTUD6B_Q8N6M0_158_QIPSDGHCMYK (UniProt Q8N6M0),-0.0851,-0.109

# Another view of part of the listing above.
Target	probe-labelled cysteine peptide fold change (10 µM)	probe-labelled cysteine peptide fold change (50 µM)
OSGEP_Q9NPF4_160_IFGETIDIAVGNCLDR (UniProt Q9NPF4)	0.0104	-0.0314
PARP14_Q460N5_42_RSGGGECEVR (UniProt Q460N5)	-0.0352	-0.108
OS9_Q13438_73_QRYECR (UniProt Q13438)	0.00781	0.194
PAPSS2_O95340_497_STIVAIFPSPMLYAGPTEVQWHCR (UniProt O95340)	0.22	0.128
OGT_O15294_315_GSVAEAEDCYNTALR (UniProt O15294)	-0.107	-0.0543
PAICS_P22234_63_ITSCIFQLLQEAGIK (UniProt P22234)	0.182	-0.306
OPLAH_O14841_1053_DIPLNQGCLAPVR (UniProt O14841)	-0.146	0.136
PARP12_Q9H0J9_195_FGTSCK (UniProt Q9H0J9)	0.0637	0.0773
OSTF1_Q92882_185_KLAFDMATNAACASLLK (UniProt Q92882)	-0.203	-0.151
PACSIN2_Q9UNF0_163_AHHAACK (UniProt Q9UNF0)	-0.00432	0.0373
PA2G4_Q9UQ80_179_VAHSFNCTPIEGMLSHQLK (UniProt Q9UQ80)	-0.0816	-0.123
ORC1_Q13415_506_LHVSAVPESLPCR (UniProt Q13415)	0.149	0.139
P4HA1_P13674_167_SFLTAEDCFELGK (UniProt P13674)	0.088	0.0677
OPA1_O60313_551_NLSLAVSDCFWK (UniProt O60313)	-0.0381	-0.00771
OTUD6B_Q8N6M0_158_QIPSDGHCMYK (UniProt Q8N6M0)	-0.0851	-0.109

# Continuation.

Target,probe-labelled cysteine peptide fold change (10 µM),probe-labelled cysteine peptide fold change (50 µM)
OGT_O15294_323_LCPTHADSLNNLANIKR (UniProt O15294),0.00173,-0.00169
PAFAH2_Q99487_298_ICAQHEQSR (UniProt Q99487),0.179,0.197
PARP14_Q460N5_208_FVDDCTK (UniProt Q460N5),-0.0975,-0.12
OTUD7B_Q6GQQ9_345_DSGGEAFAPIPFGGIYLPLEVPASQCHR (UniProt Q6GQQ9),0.184,0.0768
OSBPL1A_Q9BXW6_303_CFDDTIHGFR (UniProt Q9BXW6),0.003,0.0976
PARP10_Q53GL7_983+1004_YDSAVDCICQPSIFVIFHDTQALPTHLITCEHVPR (UniProt Q53GL7),-0.288,-0.306
OTUD7B_Q6GQQ9_280_MHLGTNGANCGGVESSEEPVYESLEEFHVFVLAHVLR (UniProt Q6GQQ9),0.293,0.432
PAK4_O96013_462_LSDFGFCAQVSK (UniProt O96013),0.0425,0.0187
PARN_O95453_543_LNPQCIPYTLQNHYYR (UniProt O95453),0.0426,-0.0659
PARP1_P09874_256_VCSTNDLK (UniProt P09874),0.00261,0.0164
PAICS_P22234_281_VVVLMGSTSDLGHCEK (UniProt P22234),0.0699,-0.107
PAIP1_Q9H074_358_IENVVLDANCSR (UniProt Q9H074),0.0975,0.122
ORC6_Q9Y5N6_88_SFECLLGLNSNIGIR (UniProt Q9Y5N6),0.0454,0.0144
OTUD6B_Q8N6M0_172_DCALTVVALR (UniProt Q8N6M0),0.0318,0.00252
ORC4_O43929_152_TSSCPVIFILDEFDLFAHHK (UniProt O43929),0.256,0.0467
PAICS_P22234_81_CGETAFIAPQCEMIPIEWVCR (UniProt P22234),-0.127,-0.13
PAIP1_Q9H074_318_ELLNALFSNPMDDNLICAVK (UniProt Q9H074),-0.0771,-0.0378
OSBPL8_Q9BZF1_617_LKPFLGSSDCVNQISGK (UniProt Q9BZF1),0.163,-0.0286
PAN2_Q504Q3_550_CLIQNHLCQK (UniProt Q504Q3),0.198,0.256
PARK7_Q99497_46_VTVAGLAGKDPVQCSR (UniProt Q99497),-0.13,-0.213
P3H1_Q32P28_645_TVTAEVQPQCGR (UniProt Q32P28),-0.00504,0.0522

Target,probe-labelled cysteine peptide fold change (10 µM),probe-labelled cysteine peptide fold change (50 µM)
PAK4_O96013_336_IGEGSTGIVCIATVR (UniProt O96013),0.257,0.411
PANK4_Q9NVE7_513_EHCLNEFNFPDPYSK (UniProt Q9NVE7),-0.444,-0.129
OGT_O15294_417_EMQDVQGALQCYTR (UniProt O15294),-0.0702,0.0109
PACSIN2_Q9UNF0_38_LCSDLMNCLHER (UniProt Q9UNF0),0.115,0.0274
PAK3_O75914_424_LTDFGFCAQITPEQSK (UniProt O75914),0.146,0.102
OSBPL1A_Q9BXW6_303_CFDDTIHGFRVPK (UniProt Q9BXW6),-0.201,-0.0857
PARP14_Q460N5_1274_ECSQQAQQR (UniProt Q460N5),0.0962,-0.0412
PAICS_P22234_81_KCGETAFIAPQCEMIPIEWVCR (UniProt P22234),-0.174,-0.0778
PAK1IP1_Q9NWT1_106_HLISGAEDGLICIWDAK (UniProt Q9NWT1),0.0804,0.269
ORC3_Q9UBD5_363_INFLSNNQCENIR (UniProt Q9UBD5),-0.0956,-0.106
PAICS_P22234_91_KCGETAFIAPQCEMIPIEWVCR (UniProt P22234),-0.0785,-0.118
PAPSS1_O43252_290+295_EREYLQCLHFDCLLDGGVINLSVPIVLTATHEDK (UniProt O43252),-0.13,0.0777
OTUB1_Q96FW1_91_KTRPDGNCFYR (UniProt Q96FW1),-0.383,-0.417
PAPSS2_O95340_350_VWGTTCTK (UniProt O95340),-0.00431,-0.0362
PARK7_Q99497_53_DVVICPDASLEDAK (UniProt Q99497),-0.00443,-0.264
OSBPL1A_Q9BXW6_387_ECDMAK (UniProt Q9BXW6),-0.199,-0.186
OSBPL1A_Q9BXW6_182_TTELTALLNRPNPPDVNCSDQLGNTPLHCAAYR (UniProt Q9BXW6),-0.0584,-0.0148
P3H1_Q32P28_591_DDSHPVHVDNCILNAETLVCVK (UniProt Q32P28),0.0787,0.108
OSBPL1A_Q9BXW6_39_NEVIADINCK (UniProt Q9BXW6),0.0705,0.177
PAF1_Q8N7H5_218_MWINPCAQVIFDSDPAPK (UniProt Q8N7H5),-0.103,-0.0459
